Results on 11 targets are retold here after the supplement of paper PMC12819154, “High-throughput peptide-centric local stability assay extends protein–ligand identification to membrane proteins, tissues and bacteria” (Nature Structural & Molecular Biology, 2025).

Protein sequences, listed by entry. Tags and fused reporters are not part of them. Lines headed by an entry give the natural chain unless they say otherwise; changes in a name come on top.
UniProt Q96CF2: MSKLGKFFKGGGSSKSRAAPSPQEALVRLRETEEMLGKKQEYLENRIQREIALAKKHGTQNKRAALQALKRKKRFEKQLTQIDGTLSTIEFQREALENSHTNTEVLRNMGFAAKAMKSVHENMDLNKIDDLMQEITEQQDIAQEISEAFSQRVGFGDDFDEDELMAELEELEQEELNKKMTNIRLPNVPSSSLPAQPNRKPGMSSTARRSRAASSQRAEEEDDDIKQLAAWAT
UniProt Q92973: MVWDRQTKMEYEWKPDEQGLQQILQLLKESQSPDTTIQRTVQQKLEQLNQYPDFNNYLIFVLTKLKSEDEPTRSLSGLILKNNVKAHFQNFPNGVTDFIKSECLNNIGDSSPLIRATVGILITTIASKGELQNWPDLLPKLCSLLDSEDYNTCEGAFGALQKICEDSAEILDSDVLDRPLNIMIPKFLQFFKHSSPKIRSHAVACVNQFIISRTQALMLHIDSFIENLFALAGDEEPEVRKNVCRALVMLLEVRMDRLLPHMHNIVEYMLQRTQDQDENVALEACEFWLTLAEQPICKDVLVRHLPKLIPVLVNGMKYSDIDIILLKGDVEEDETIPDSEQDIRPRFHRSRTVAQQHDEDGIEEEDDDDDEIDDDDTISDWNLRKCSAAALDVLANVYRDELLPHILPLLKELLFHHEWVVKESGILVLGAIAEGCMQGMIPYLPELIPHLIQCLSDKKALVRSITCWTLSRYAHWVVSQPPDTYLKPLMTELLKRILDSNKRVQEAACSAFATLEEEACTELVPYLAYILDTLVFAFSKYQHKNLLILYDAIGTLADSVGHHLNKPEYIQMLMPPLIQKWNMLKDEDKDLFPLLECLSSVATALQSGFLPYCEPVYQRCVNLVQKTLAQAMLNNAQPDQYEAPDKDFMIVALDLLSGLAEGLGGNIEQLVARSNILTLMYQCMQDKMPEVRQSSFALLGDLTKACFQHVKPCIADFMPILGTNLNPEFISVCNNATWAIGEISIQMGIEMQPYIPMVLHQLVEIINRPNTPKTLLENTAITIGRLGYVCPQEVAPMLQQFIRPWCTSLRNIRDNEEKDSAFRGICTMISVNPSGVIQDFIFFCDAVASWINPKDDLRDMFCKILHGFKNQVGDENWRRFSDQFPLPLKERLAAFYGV
UniProt Q96AT1: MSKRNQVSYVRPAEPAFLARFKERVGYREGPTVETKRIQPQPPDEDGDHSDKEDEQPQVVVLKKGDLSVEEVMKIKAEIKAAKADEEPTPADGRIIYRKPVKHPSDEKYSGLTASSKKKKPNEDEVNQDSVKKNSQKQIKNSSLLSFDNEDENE
UniProt Q96CK0: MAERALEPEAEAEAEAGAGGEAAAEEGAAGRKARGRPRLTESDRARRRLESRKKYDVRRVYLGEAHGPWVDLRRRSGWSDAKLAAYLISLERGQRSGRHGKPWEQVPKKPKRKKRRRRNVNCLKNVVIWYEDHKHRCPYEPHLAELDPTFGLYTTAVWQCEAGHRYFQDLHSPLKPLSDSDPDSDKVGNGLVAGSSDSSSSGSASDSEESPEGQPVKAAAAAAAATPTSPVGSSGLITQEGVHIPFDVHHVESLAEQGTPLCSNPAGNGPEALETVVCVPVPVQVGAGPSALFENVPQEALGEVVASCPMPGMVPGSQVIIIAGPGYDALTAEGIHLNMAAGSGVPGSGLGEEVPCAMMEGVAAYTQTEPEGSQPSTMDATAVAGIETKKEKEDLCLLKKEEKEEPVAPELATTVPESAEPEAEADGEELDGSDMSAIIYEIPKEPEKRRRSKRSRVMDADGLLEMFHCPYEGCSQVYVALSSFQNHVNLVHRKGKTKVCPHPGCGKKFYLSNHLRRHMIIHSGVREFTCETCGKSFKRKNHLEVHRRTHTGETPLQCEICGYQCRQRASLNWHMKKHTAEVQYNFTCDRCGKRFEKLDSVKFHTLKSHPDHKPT
UniProt Q92922, whole entry: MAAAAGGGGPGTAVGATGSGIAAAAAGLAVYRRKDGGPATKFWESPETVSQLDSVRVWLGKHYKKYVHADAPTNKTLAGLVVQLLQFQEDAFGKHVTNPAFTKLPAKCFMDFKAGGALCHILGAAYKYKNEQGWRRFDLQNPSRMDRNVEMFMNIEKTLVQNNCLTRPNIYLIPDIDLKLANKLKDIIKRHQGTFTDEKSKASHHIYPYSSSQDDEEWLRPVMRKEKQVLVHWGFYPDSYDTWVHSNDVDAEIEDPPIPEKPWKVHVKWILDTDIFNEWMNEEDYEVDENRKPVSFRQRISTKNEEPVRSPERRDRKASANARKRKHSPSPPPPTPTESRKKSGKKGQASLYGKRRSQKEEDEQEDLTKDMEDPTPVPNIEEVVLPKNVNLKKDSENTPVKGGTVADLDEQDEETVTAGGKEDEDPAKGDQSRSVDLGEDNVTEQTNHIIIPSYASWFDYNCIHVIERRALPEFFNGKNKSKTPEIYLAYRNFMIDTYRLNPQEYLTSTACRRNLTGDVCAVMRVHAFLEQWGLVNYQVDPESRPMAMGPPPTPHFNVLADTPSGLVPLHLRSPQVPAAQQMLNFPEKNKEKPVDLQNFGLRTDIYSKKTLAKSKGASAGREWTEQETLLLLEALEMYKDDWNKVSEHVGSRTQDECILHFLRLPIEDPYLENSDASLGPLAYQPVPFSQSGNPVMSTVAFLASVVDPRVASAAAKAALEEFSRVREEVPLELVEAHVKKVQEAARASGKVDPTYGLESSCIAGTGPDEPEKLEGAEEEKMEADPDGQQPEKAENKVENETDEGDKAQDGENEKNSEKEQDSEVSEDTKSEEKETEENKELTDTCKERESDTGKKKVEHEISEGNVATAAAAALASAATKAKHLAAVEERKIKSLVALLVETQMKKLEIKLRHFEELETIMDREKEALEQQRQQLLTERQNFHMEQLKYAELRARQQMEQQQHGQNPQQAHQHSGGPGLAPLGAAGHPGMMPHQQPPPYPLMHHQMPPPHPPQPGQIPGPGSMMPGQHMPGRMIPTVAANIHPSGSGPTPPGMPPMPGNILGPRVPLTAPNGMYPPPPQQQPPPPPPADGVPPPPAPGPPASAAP
UniProt Q96BT7: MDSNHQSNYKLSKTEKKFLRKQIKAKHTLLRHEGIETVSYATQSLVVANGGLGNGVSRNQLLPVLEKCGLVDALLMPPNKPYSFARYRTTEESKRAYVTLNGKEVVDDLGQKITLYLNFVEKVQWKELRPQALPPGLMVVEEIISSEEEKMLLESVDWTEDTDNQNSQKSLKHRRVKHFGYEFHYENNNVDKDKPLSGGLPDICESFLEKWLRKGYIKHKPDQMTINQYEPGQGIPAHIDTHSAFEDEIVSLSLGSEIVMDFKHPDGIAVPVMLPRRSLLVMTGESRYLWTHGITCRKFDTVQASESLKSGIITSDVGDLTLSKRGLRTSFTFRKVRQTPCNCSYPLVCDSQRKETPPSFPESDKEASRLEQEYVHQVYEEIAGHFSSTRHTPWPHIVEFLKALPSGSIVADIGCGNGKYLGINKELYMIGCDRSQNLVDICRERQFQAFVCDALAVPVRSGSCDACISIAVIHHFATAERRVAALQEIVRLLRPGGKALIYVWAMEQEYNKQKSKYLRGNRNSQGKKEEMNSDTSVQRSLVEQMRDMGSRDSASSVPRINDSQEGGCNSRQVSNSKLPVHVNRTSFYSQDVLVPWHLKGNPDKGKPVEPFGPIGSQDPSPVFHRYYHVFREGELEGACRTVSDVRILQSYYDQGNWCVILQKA
UniProt Q92839: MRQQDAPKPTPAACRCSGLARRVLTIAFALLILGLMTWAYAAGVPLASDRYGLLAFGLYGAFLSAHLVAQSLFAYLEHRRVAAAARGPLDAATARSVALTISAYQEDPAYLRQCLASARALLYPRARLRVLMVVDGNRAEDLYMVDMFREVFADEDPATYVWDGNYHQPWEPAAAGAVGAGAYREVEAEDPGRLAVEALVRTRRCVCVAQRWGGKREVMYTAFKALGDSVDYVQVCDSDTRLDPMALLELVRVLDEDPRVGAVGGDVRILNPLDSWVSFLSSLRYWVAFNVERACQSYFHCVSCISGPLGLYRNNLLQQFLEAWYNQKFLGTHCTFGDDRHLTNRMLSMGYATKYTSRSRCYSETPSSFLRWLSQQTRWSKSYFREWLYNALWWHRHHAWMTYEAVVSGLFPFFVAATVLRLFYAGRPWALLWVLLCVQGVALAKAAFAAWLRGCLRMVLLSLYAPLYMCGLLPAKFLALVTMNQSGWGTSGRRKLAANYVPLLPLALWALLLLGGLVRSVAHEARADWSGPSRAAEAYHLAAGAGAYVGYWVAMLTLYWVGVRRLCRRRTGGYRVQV
UniProt Q92772: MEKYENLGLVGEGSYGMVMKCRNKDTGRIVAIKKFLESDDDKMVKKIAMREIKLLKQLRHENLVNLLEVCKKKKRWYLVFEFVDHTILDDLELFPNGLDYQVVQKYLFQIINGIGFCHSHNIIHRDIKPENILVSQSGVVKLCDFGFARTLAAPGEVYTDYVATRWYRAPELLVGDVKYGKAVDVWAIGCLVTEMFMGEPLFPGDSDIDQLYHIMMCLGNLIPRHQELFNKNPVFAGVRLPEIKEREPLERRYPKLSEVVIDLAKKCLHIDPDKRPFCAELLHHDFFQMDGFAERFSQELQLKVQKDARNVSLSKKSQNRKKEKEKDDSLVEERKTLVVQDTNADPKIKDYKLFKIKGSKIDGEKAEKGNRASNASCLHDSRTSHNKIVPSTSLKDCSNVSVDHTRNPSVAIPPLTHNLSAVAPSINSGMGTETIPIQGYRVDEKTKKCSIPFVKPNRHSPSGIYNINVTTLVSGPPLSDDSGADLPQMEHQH
UniProt Q96F07, whole entry: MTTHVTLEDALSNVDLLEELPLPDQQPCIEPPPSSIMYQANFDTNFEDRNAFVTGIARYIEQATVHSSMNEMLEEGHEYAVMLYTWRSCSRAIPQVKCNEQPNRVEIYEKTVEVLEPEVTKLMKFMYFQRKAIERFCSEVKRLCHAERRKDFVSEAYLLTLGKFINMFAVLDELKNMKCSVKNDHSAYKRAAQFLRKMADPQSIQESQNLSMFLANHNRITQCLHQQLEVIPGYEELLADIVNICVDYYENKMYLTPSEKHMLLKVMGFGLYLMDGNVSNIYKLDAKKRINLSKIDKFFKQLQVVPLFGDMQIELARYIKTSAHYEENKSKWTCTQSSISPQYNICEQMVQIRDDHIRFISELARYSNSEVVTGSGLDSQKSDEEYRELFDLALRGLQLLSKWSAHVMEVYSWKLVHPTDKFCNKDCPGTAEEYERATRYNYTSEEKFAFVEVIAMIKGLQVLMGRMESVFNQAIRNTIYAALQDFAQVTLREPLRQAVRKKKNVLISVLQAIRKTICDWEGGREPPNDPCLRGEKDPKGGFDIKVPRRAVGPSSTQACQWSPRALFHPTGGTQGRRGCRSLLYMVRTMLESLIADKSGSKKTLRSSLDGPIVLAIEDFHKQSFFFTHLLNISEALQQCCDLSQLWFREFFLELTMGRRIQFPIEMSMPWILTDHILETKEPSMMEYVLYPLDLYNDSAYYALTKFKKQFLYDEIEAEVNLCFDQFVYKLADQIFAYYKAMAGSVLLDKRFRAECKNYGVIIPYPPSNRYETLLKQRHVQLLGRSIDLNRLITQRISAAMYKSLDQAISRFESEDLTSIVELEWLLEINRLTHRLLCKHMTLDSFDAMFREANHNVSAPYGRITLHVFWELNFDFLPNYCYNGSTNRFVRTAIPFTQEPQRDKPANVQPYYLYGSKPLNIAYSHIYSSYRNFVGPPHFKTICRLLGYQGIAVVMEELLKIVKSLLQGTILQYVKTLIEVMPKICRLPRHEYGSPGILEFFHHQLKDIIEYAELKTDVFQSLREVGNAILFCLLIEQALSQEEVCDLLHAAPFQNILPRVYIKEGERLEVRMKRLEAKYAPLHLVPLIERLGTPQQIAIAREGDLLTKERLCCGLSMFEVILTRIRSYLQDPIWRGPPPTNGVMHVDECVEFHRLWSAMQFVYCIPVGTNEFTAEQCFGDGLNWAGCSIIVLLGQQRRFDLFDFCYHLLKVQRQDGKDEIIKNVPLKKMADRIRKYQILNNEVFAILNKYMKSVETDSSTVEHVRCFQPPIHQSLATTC

This is one part of the list. Most entries show no effect beyond the scatter of the controls.

Compound in the test: Cc1nc(Nc2ncc(C(=O)Nc3c(C)cccc3Cl)s2)cc(N2CCN(CCO)CC2)n1 [dasatinib]
The test can be described thus: log2 fold change of tryptic peptide abundance, ligand vs vehicle (limited proteolysis) (log2 ratio); higher = more trypsin-susceptible (destabilized). The following applies: ligand concentration: 5 uM; sample: K562 cleared lysate.

Consider “CHMP4C (peptide sequence: SVHENMDLNK, peptide start residue: 118) (UniProt Q96CF2)”, for which the log2 fold change was determined as 0.319. In the case of “TNPO1 (peptide sequence: FLQFFKHSSPK, peptide start residue: 187) (UniProt Q92973)”, the log2 fold change was found to be 0.535. In the case of “KIAA1143 (peptide sequence: HPSDEKYSGLTASSK, peptide start residue: 103) (UniProt Q96AT1)” it was 0.434. The value for “UniProt Q96CK0 (peptide sequence: LAAYLISLER, peptide start residue: 83)” was -0.524; that for “FAM136A (peptide sequence: CVDDHMHLIPTMTK, peptide start residue: 114) (UniProt Q96C01)” was 0.176; that for “PTCD3 (peptide sequence: FIGPDQHR, peptide start residue: 447) (UniProt Q96EY7)” was 0.504. The value for “SMARCC1 (peptide sequence: NKEKPVDLQNFGLR, peptide start residue: 589) (UniProt Q92922)” was -0.0818; that for “ALKBH8 (peptide sequence: QVSNSKLPVHVNR, peptide start residue: 572) (UniProt Q96BT7)” was -0.455; that for “UniProt Q92839 (peptide sequence: LAVEALVR, peptide start residue: 194)” was -0.0357. Turning to “CDKL2 (peptide sequence: KIAMREIK, peptide start residue: 46) (UniProt Q92772)”, the log2 fold change is 0.389. The value for “CYFIP2 (peptide sequence: EFFLELTMGRR, peptide start residue: 625) (UniProt Q96F07)” was 0.265.
